1 substance from paper PMC6321638 can be followed below.

Protein sequences, listed by entry. Tags and fused reporters are not part of them.
UniProt P12815: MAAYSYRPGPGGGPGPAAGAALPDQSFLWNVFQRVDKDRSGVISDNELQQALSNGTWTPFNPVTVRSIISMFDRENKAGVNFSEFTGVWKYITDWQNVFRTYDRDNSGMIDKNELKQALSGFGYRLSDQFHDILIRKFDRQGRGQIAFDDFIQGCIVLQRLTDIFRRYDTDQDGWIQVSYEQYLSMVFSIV

In the test the target is T1, His-SOUL^WT (wild-type SOUL fused to His-tag) (mouse) (UniProt Q9WU63).
T1 sequence: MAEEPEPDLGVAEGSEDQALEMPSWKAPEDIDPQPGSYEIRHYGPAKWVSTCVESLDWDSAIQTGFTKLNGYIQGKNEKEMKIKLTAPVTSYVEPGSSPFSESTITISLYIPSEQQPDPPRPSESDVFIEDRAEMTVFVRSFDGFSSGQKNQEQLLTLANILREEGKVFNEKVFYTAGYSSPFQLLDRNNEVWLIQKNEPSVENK
Put plainly: pull-down; His-tag pulldown as a3 but with EGTA instead of Ca2+; both purified.

These are yes or no findings as the source states them, for the method shown. Sequences can lack the tags named with a protein.

“GST-ALG-2^WT (wild-type ALG-2 fused to GST-tag) (from UniProt P12815 1-191)”: the binding entry is “no binding (condition: with EGTA)”.
